Source: the supplement of paper PMC10338343
± gives the standard deviation. The list shows a part of the results. Many entries were measured with a wide error.

What follows are sequences tested on EfPiwi piRISC loaded with L1MC piRNA (26 nt) (assay: pre-steady-state target cleavage rate (min^-1); guide: L1MC piRNA 5'p-UAACUAAAUACUAUGCAAGCUGUAGG; MIWI and MILI are mouse PIWI proteins and EfPiwi is from a freshwater sponge; tags in brackets are library labels; higher = faster piRNA-guided slicing of the target). Settings: auxiliary factor: 500 nM Ephydatia muelleri Gtsf1.
Outline: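 In HEPES–potassium acetate buffer at 33 °C, […] transcribed, DNA-blocked target RNA library was mixed with 1 nM active affinity-purified piRISC carrying one synthetic guide, with or without 500 nM GTSF1 partner protein, for 0–8 or 0–960 min. Uncleaved targets were sequenced and normalised to depth and to weakly complementary targets; three trials were pooled and k3 was capped at 0.0001 min^-1. The pre-steady-state cleavage rate followed from a burst-and-steady-state fit.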

| Sequence | pre-steady-state target cleavage rate |
| --- | --- |
| UCCUGGUAGAGCUUGCAUAGUAUUUAGAUA | 0.00178 ± 0.0044 |
| UCCUGGAUGUCCUUGCCUAGUAUUUAGUUA | 0.00345 ± 0.002 |
| UCCUGGAUGUCCUUUGCAUAGUAUUUAGUUA | 0.00785 ± 0.0043 |
| UCCUGGAUGAGCUUGCAUAGUAUUUAAGUUA | 0.0082 ± 0.0031 |
| UCCUCCUGACAGCUUGCAUAGUAUUUAGUUA | 0.0255 ± 0.008 |
| UCCUGGUACAGCUUGCAUAGAAUUUAGUAA | 0.00202 ± 0.0021 |
| UCCUCCAACAGCUUGCAUAGUAAUUAGUUA | 0.0103 ± 0.0047 |
| UCCUGGAUCAGGUUGCAUAGAAUUUAGUUA | 0.00305 ± 0.0023 |
| UCCUGGAUGUCGAUGCAUUGAAUUUAGUUA | 0.000216 ± 0.013 |
| UCCUGGAACAGCUUGAAUAGUAUUUAGUUA | 0.0656 ± 0.017 |
| UCCUGGUACACCUUGCAUAGUUUUUAGUUA | 0.00108 ± 0.0083 |
| UCCUGCUACACCUUGCAUAGUAAUUAGUUA | 0.00647 ± 0.0028 |
| UCCUCCUACUGCUAGCAUAGUAUUUAGUUA | 0.0131 ± 0.004 |
| UCCUGGAACAGGUUGCAUAGUAAUUAGUUA | 0.0061 ± 0.0024 |
| UCCUCCUACAGCUUGCAUAGUAUUUAGCUUA | 0.00683 ± 0.0027 |
| UCCUGGAUGUCCUUGUAUAGUAUUUAGUUA | 0.00424 ± 0.0024 |
| UCCUCCGUACAGCUUGCAUAGUAUUUAGUUA | 0.0578 ± 0.018 |

| Sequence | pre-steady-state target cleavage rate |
| --- | --- |
| UCCUGGAACAGCUUGCUAAGUAUUUAGUUA | 0.00374 ± 0.0032 |
| UCCUGGAUCAUCUUGCAUAGUAUUUAGUUA | 0.101 ± 0.023 |
| UCCUGGAUGUCGAAGCAUAGUAUUUAGUUG [g2:g16:cont:t1G] | 0.00123 ± 0.0061 |
| UCCUGCUACAGCUUGCAUAGUAUUUUGUUA | 0.00916 ± 0.0029 |
| UCCUGGAUCAGCAAGCAUAGUAUUUAGUUA | 0.0107 ± 0.0038 |
| UCCUGGAUCAGCUUGCAUUGUAUUAAGUUA | 0.00314 ± 0.0017 |
| UCCUGGAUGUCGAACGUAAGGAUUUAGUUA | < 0.0001 |
| UCCUCCUACAGCUUGGAUAGUAUUUAGAAA | 0.00325 ± 0.0015 |
| UCCUGGAUGAGCUUGCAUACUUUUUAGUUA | 0.000801 ± 0.0093 |
| UCCUGGAUCAGCUUGCAUAGUAUUUCGUUA | 0.00263 ± 0.002 |
| UCCUGCUACAGCUUGCAUAGUAUUUAUUUA | 0.0055 ± 0.0037 |
| UCCUGGAACAGCUGGCAUAGUAUUUAGUUA | 0.00699 ± 0.0026 |
| UCCUCCUUCUGCUUGCAUAGUAUUUAGUUA | 0.11 ± 0.028 |
| UCCUGGAUGUCGAUGAUAGUAUUUAGUUA | 0.000655 ± 0.0076 |
| UCCUCCUACAGGUUGCAUAGUAUUUAGUAA | 0.00547 ± 0.0022 |
| UCCUCCUACAGCUUGCAUAGUAUUCAGUUA | 0.0063 ± 0.0029 |

A portion of the results above, for reference:

| Sequence | pre-steady-state target cleavage rate |
| --- | --- |
| UCCUGGAACAGCUGGCAUAGUAUUUAGUUA | 0.00699 ± 0.0026 |
| UCCUCCUUCUGCUUGCAUAGUAUUUAGUUA | 0.11 ± 0.028 |

Same assay, conditions: auxiliary factor: none (no Gtsf1)

| Sequence | pre-steady-state target cleavage rate |
| --- | --- |
| UCCUGGUACAGCUUGCAUAGUACUUAGUUA | 0.000484 ± 0.02 |
| UCCUGGUACAGCUCUGCAUAGUAUUUAGUUA | 0.000426 ± 0.034 |
| UCCUGGAACAGCUUGCUUAGUAUUUUGUUA | 0.000736 ± 0.013 |
| UCCUGCUACACCAUGCAUAGUAUUUAGUUA | 0.000316 ± 0.018 |
| UCCUGGAUGAGCUUGCAUACAUUUUACAAA | 0.000299 ± 0.026 |
| UCCUGGAUCAGCUUGCAUAGUAUUUACAAA | 0.000904 ± 0.0091 |
